Experimental data taken from the supplement of paper PMC8256030.
Values joined by “and” are separate entries in the source; they are usually repeats but may differ in a detail not shown here. Equal values may be shown once. Where a name gives a salt, the structure may show the parent alone. This is one part of the list. This data set is noisy: repeats of one test often differ as much as different tests do.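 HEK293T cells were given each compound shortly before transfection with a reporter in which red mCherry is followed by the SARS-CoV-2 frameshift element and then GFP in the −1 frame, so GFP appears only after frameshifting.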

What was measured:
[1] = tested on: SARS-CoV-2 -1 PRF reporter mCherry-FSE-GFP(-1); assay: mCherry (red) intensity as percent of control; higher = higher upstream reporter expression; conditions: 10 µM; 24 h; HEK293T
[2] = tested on: SARS-CoV-2 -1 PRF reporter mCherry-FSE-GFP(-1); assay: percent effect, decrease of GFP/mCherry ratio (-1 PRF reporter) relative to controls; higher = stronger frameshift inhibition; conditions: 10 µM; 24 h; HEK293T

SMILES | mCherry [1] | percent effect [2]
O=C(NCC1[C@H]2CN(C(=O)OCc3cc(C(F)(F)F)cc(C(F)(F)F)c3)C[C@@H]12)c1ccc2n[nH]nc2c1 (stereo partly specified) | 78.6% | -1.2%
O=c1oc2c(O)c(O)cc3c(=O)oc4c(O)c(O)cc1c4c23 [ellagic acid] | 15.7% | -0.395%
Cc1nnc(NS(=O)(=O)c2ccc(N)cc2)s1 [sulfamethizole] | 110% | -5.21%
Nc1ccc(S(=O)(=O)c2ccc(N)cc2)cc1 [dapsone] | 97.1% | -3.53%
Cc1cccn2c(=O)c(-c3nnn[nH]3)cnc12 [pemirolast] | 124% | 2.94%
CN1CCCN=C1/C=C/c1cccc(O)c1 | 106% | 0.449%
COC(=S)NCCn1c([N+](=O)[O-])cnc1C [carnidazole] | 96.5% | 1.28%
O=C1N(c2ccccc2)c2ccccc2C1(Cc1ccncc1)Cc1ccncc1 [linopirdine] | 97.9% | -2.55%
Nc1nc2c(ncn2COCCO)c(=O)[nH]1 [aciclovir] | 85.5% | -4.54%
CNS(=O)(=O)Cc1ccc2[nH]cc(CCCN3CCN(c4ncncc4OC)CC3)c2c1 [avitriptan] | 66.9% | -11%
NC[C@@H]1O[C@H](O[C@H]2[C@@H](O)[C@H](O[C@@H]3[C@@H](O)[C@H](N)C[C@H](N)[C@H]3O[C@H]3O[C@H](CN)[C@@H](O)[C@H](O)[C@H]3N)O[C@@H]2CO)[C@H](N)[C@@H](O)[C@@H]1O [neomycin] | 98.8% | -1.42% and -10.4%
c1ccc2c(c1)OCC(CN1CCCCC1)O2 (stereo unspecified) [piperoxan] | 79.5% | 3.12%
CCCCC(=O)N(Cc1ccc(-c2ccccc2-c2nnn[nH]2)cc1)[C@H](C(=O)O)C(C)C [valsartan] | 68% | -5.13%
C[N+](C)(C)NCCC(=O)[O-] [meldonium] | 65.5% | 1.78%
CCCCCCCC(=O)O [octanoic acid] | 116% | -2.31%
CN(CCOc1ccc(CC2SC(=O)NC2=O)cc1)c1ccccn1 (stereo unspecified) [Rosiglitazone maleate] | 89.1% | -2.38%
Nc1nc(O)c2ncn(CCC(CO)CO)c2n1 [penciclovir] | 108% | -4.62%
CCCC(=O)c1ccc2c(c1)N(CCCN1CCN(C)CC1)c1ccccc1S2 [butaperazine] | 62.4% | 0.499%
C[C@H](CCC(=O)O)[C@H]1CC[C@H]2[C@@H]3[C@@H](O)C[C@@H]4C[C@H](O)CC[C@]4(C)[C@H]3CC[C@]12C [ursodeoxycholic acid] | 79% and 103% | -3.91% and -7.08%
CC(=O)Oc1ccc(C(=C2CCCCC2)c2ccc(OC(C)=O)cc2)cc1 [cyclofenil] | 106% | -3.45%
OC(CCN1CCCCC1)(c1ccccc1)C1CC2C=CC1C2 (stereo unspecified) [biperiden] | 105% | -0.105%
c1ccc(OCc2ccc(CCCN3CCOCC3)cc2)cc1 [fomocaine] | 75.6% | -3.94%
C[C@H]1[C@H](OC(=O)CCC(=O)O)O[C@@H]2O[C@@]3(C)CC[C@H]4[C@H](C)CC[C@@H]1[C@@]24OO3 | 16.1% | 2.42%
C=C(C)CNc1ccc(C(C)C(=O)O)cc1 (stereo unspecified) [alminoprofen] | 66.9% | -1.09%
CC(C)NCC(O)COc1ccc(CCOCC2CC2)cc1 (stereo unspecified) | 101% | -12.3%

2 neighbouring entries out of the list so far, quoted:
SMILES | mCherry [1] | percent effect [2]
C[C@H](CCC(=O)O)[C@H]1CC[C@H]2[C@@H]3[C@@H](O)C[C@@H]4C[C@H](O)CC[C@]4(C)[C@H]3CC[C@]12C [ursodeoxycholic acid] | 79% and 103% | -3.91% and -7.08%
CC(=O)Oc1ccc(C(=C2CCCCC2)c2ccc(OC(C)=O)cc2)cc1 [cyclofenil] | 106% | -3.45%

Some of the entries above, reformatted.

| SMILES | mCherry [1] | percent effect [2] |
| --- | --- | --- |
| O=C1N(c2ccccc2)c2ccccc2C1(Cc1ccncc1)Cc1ccncc1 [linopirdine] | 97.9% | -2.55% |
| Nc1nc2c(ncn2COCCO)c(=O)[nH]1 [aciclovir] | 85.5% | -4.54% |

Later entries:

SMILES | mCherry [1] | percent effect [2]
CNC(=O)OCc1cccc(COC(=O)NC)n1 [pyricarbate] | 94.5% | -0.346%
NCCCC[C@H](N[C@@H](CCc1ccccc1)C(=O)O)C(=O)N1CCC[C@H]1C(=O)O [Lisinopril] | 69.9% | -3.75%
Cc1cc2c(cc1CC(=O)c1sccc1S(=O)(=O)Nc1onc(C)c1Cl)OCO2 [Thelin] | 135% | -2.02%
Cc1cccc(C)c1NC(=O)CN1CCCCCC1 [pincainide] | 97.7% | -3.18%
CCN(CC)CCc1nc(-c2ccccc2)no1 | 110% | -2.04%
CCN(CC)CCS(=O)(=O)[C@@H]1CCN2C(=O)c3coc(n3)CC(=O)C[C@H](O)/C=C(C)/C=C/CNC(=O)/C=C/[C@@H](C)[C@@H](C(C)C)OC(=O)[C@@H]12 [dalfopristin] | 103% | -2.17%
COc1ccc(-n2nc(C(N)=O)c3c2C(=O)N(c2ccc(N4CCCCC4=O)cc2)CC3)cc1 [apixaban] | 110% | 5.71%
CN[C@H](CC(C)C)C(=O)N[C@H]1C(=O)N[C@@H](CC(N)=O)C(=O)N[C@H]2C(=O)N[C@H]3C(=O)N[C@H](C(=O)N[C@H](C(=O)O)c4cc(O)cc(O)c4-c4cc3ccc4O)[C@H](O[C@H]3C[C@](C)(N)[C@@H](O)[C@H](C)O3)c3ccc(c(Cl)c3)Oc3cc2cc(c3O[C@@H]2O[C@H](CO)[C@@H](O)[C@H](O)[C@H]2O[C@H]2C[C@](C)(NCc3ccc(-c4ccc(Cl)cc4)cc3)[C@@H](O)[C@H](C)O2)Oc2ccc(cc2Cl)[C@H]1O [oritavancin] | 112% | -3.81%
Cc1cccc(C)c1NC(=O)/N=C1\CCCN1C [xilobam] | 98.7% | -1.39%
N[C@H]1CONC1=O [levcycloserine] | 94.8% | -3.71%
O=c1[nH]sc2cc(Cl)ccc12 [ticlatone] | 68.8% | -0.613%
CN(C)c1ccc(O)c2c1C[C@H]1C[C@H]3[C@H](N(C)C)C(=O)C(C(N)=O)=C(O)[C@@]3(O)C(=O)C1=C2O | 111% | 1.86%
Nc1nccs1 [aminothiazole] | 110% | -0.46%
c1ccc([C@H]2CN3CCSC3=N2)cc1 | 134% | -0.242%
COc1nc(C)nc(Cl)c1NC1=NCCN1 [moxonidine] | 90.6% | -6.95%
OC(CN1CCC(Cc2ccc(F)cc2)CC1)c1ccc(Cl)cc1 (stereo unspecified) [eliprodil] | 94.9% | -1.53%
O=C(OCC(O)CO)c1ccccc1Nc1ccnc2cc(Cl)ccc12 (stereo unspecified) [glafenine] | 108% | -1.27%
Cc1cc(Cl)c(S(N)(=O)=O)cc1S(N)(=O)=O [disulfamide] | 111% | -2.18%
CNCCCC1(c2ccccc2)SC(C)(C)c2ccccc21 (stereo unspecified) [talsupram] | 93.3% | 9.98%
CCCCCCNC(=O)n1cc(F)c(=O)[nH]c1=O [carmofur] | 118% | 6.62%
CN(C)[C@@H]1C(=O)C(C(N)=O)=C(O)[C@@]2(O)C(=O)C3=C(O)c4c(O)ccc(Cl)c4[C@@H](O)[C@H]3C[C@@H]12 | 107% | -2.3%
Cn1ccnc1S [thiamazole] | 75.9% and 90.7% | -5.73% and -2.06%
NCc1ccccc1Sc1ccccc1CO [bipenamol] | 99.2% | 0.0575%
CN1[C@@H]2CC[C@H]1C[C@@H](OC(=O)c1c[nH]c3ccccc13)C2 | 108% | -1.65%
CC(C)Cc1ccc([C@H](C)C(=O)O)cc1 [dexibuprofen] | 109% | 0.663%

SMILES | mCherry [1] | percent effect [2]
CCCCCCC[N+](CC)(CC)CCCCc1ccc(Cl)cc1 [clofilium tosylate] | 36.4% | -12.6%
CC[C@@H](CO)NCCN[C@@H](CC)CO [ethambutol] | 112% | -1.13%
COc1nc(N)nc2c1ncn2[C@@H]1O[C@H](CO)[C@@H](O)[C@@H]1O [nelarabine] | 103% | -1.23%
O=C(O)Cn1cc(I)c(=O)c(I)c1 [diodone] | 111% | 2.83%
CC1(C)S[C@@H]2[C@H](NC(=O)COc3ccccc3)C(=O)N2[C@H]1C(=O)O [phenoxymethylpenicillin] | 71.3% | -0.848%
C=CC1=C(C(=O)O)N2C(=O)[C@@H](NC(=O)/C(=N\OCC(=O)O)c3csc(N)n3)[C@H]2SC1 [Suprax] | 109% | -5.03%
FC(F)(F)C(Cl)Br (stereo unspecified) [halothane] | 93.7% | -2.18%
CN1C(C(=O)Nc2ccccn2)=C(O)c2ccccc2S1(=O)=O | 99.3% | -2.28%
CS(=O)(=O)c1ccc(-c2cn3ccccc3n2)cc1 [zolimidine] | 85.6% | -2.53%
COCCCN1CCC(NC(=O)c2cc(Cl)c(N)c3c2OCC3)CC1 [prucalopride] | 84.7% | -3.35%
C=C[C@@]1(C)CC(=O)[C@]2(O)[C@@]3(C)[C@@H](O)CCC(C)(C)[C@@H]3[C@H](O)[C@H](OC(C)=O)[C@@]2(C)O1 | 115% | 1.76%
CC(O)CN(CCN(CC(C)O)CC(C)O)CC(C)O (stereo unspecified) [edetol] | 110% | 1.86%
O=C(O)Cc1cscc1Nc1c(Cl)cccc1Cl [eltenac] | 86% | -2.67%
Nc1nc2c(ncn2COC(CO)CO)c(=O)[nH]1 | 90% | -5.14%
CCCCC[C@H](O)/C=C/[C@@H]1[C@@H](C/C=C\CCCC(=O)O)[C@@H](O)C[C@H]1O [Dinoprost] | 76.4% | 1.71%
O=C(NCCc1ccc(O)c(O)c1)C12CC3CC(CC(C3)C1)C2 [dopamantine] | 97.9% | -1.67%
CC(C)[C@H](NC(=O)[C@H](CC(=O)O)NC(=O)[C@H](CCCCN)NC(=O)[C@@H](N)CCCN=C(N)N)C(=O)N[C@@H](Cc1ccc(O)cc1)C(=O)O | 96.7% | 0.203%
CCCC(CCC)C(=O)O[C@H]1C[C@H]2CC[C@@H](C1)[N+]2(C)C [octatropine methylbromide] | 92.8% | -1.65%
N=C(N)NC(=O)Cc1c(Cl)cccc1Cl | 97.9% | -2.03%
CO[C@H]1C[C@@H]2CC[C@@H](C)[C@@](O)(O2)C(=O)C(=O)N2CCCC[C@H]2C(=O)O[C@H]([C@H](C)C[C@@H]2CC[C@@H](OCCO)[C@H](OC)C2)CC(=O)[C@H](C)/C=C(\C)[C@@H](O)[C@@H](OC)C(=O)[C@H](C)C[C@H](C)/C=C/C=C/C=C/1C [Everolimus] | 101% | 0.662%
NC(=O)CN1Cc2ccccc2OC1=O [caroxazone] | 108% | -2.5%
NCCCCC(N)C(=O)O (stereo unspecified) | 106% and 116% | -2.44% and -0.263%
CCCNC(C)C(=O)Nc1c(C)csc1C(=O)OC (stereo unspecified) [Articaine] | 92.3% | -7.49%
